Measured values taken from PubChem BioAssay AID602313 (National Center for Advancing Translational Sciences (NCATS), 2012).
About 760 (0.19%) of roughly 390,000 compounds were called active. The shares of active, inactive and inconclusive entries below differ from those in the screen. The call rests on the fitted dose curve; in most records, active means well fitted inhibition curve with a large enough effect; inconclusive means small, poorly fitted or top-dose-only effect; inactive means flat fitted curve, though single readings scatter. A potency beside an inconclusive call is a rough fit, not a confirmed value.

Assay: qHTS for Inhibitors of Vif-A3F Interactions: qHTS; further: nearly all actives have a fitted effect of over 65% in size; on activity, negative = active: % of control where 0% means no effect
Settings: HeLa A3F-eYFP + Vif (tagged APOBEC3F with the HIV-1 protein that degrades it), YFP fluorescence increase; series mostly up to 46.1 µM; activity, negative = active: at the top concentration
How it was run: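 HeLa cells stably expressing A3F-eYFP plus Vif, plated and incubated overnight at 37 deg C, then exposed to compounds overnight at 37 deg C. Blocked degradation read as raised yellow fluorescence (Ex 488/Em 500-530).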
Potency means the concentration at half of the fitted maximal effect.

Compound	Potency	activity, negative = active
CC(C)c1ccc(/C=C/C(=O)NC(=S)NN2CCOCC2)cc1	inconclusive: 35.5 µM [inhibitor, single point]	
S=C(NCCc1ccccc1)NCc1cccc(Cl)c1	inconclusive: 25.1 µM [inhibitor, single point]	
Cc1ccc(/C=N/NC(=O)c2nnn(-c3nonc3N)c2-c2cccs2)cc1	inconclusive: 15.8 µM [inhibitor, single point]	
COc1cccc(C(=O)NCCSc2c(-c3ccc(F)cc3)[nH]c3ccccc23)c1OC		inactive: 4.62%
Cc1cccc(OCC(=O)Nc2ccc(N3CCN(C(=O)c4ccccc4)CC3)cc2)c1		inactive: -1.19%
COc1ccc(NC(=O)Cn2c(=O)oc3cc(S(=O)(=O)NC4CCCC4)ccc32)cc1OC		inactive: -0.93%
Cc1cc(N2CCN(c3ccc([N+](=O)[O-])c4cccnc34)CC2)c2ccccc2n1	active: 3.55 µM	
COc1ccc(-c2cc(C(F)(F)F)c(C#N)c(SCC(=O)Nc3ccc(F)cc3)n2)cc1	inconclusive: 10 µM [inhibitor, partial curve, poor fit]	
COc1ccc([C@H]2C[C@@H](n3cc(C4CC4)nn3)[C@H](O)CN2CC2CCCCC2)cc1	inconclusive: 22.4 µM [inhibitor, single point]	
COC(=O)c1c(C)[nH]c(C(=O)OCc2csc(CC(=O)Nc3ccccc3C)n2)c1C	inconclusive: 11.2 µM [inhibitor, single point]	
CCC(CC)C(=O)NC1CC(=O)N(c2ccc3c(c2)OCCO3)C1 (stereo not given)		inactive: -2.81%
Cc1ccc(C)c(NC(=O)c2ccc3c(c2)N(Cc2ccc(F)cc2)C(=O)CS3=O)c1 (stereo not given)		inactive: -4.53%
C/C(=N/NC(=O)CNC(=O)/C=C/c1ccco1)c1ccc(Cl)cc1		inactive: -0.443%
CC(=O)c1cnc2n(c1=O)CCS2		inactive: 14.7%
CCC(=O)c1ccc(OCC(=O)OCC(=O)NC2CCCCCC2)cc1	inconclusive: 3.98 µM [inhibitor, single point]	
Cc1ccc(N(CC(=O)O)S(C)(=O)=O)cc1	inconclusive: 6.31 µM [inhibitor, single point]	
O=C(NCc1nnnn1-c1ccc(Cl)cc1)c1ccc([N+](=O)[O-])o1	inconclusive: 6.31 µM [inhibitor, single point]	
COc1ccc(OCC(=O)Nc2c(Cl)ccc3nsnc23)cc1	inconclusive: 1 µM [inhibitor, full curve, poor fit]	
Cc1ccc(NC(=S)NC2CCSc3ccccc32)cc1 (stereo not given)	inconclusive: 35.5 µM [inhibitor, single point]	
N#Cc1c(-c2cccs2)nc(SCC(=O)c2ccc(Br)cc2)[nH]c1=O	inconclusive: 14.1 µM [inhibitor, single point]	

Reformatted: entries from further up
Compound,Potency,"activity, negative = active"
COc1cccc(C(=O)NCCSc2c(-c3ccc(F)cc3)[nH]c3ccccc23)c1OC,,inactive: 4.62%
Cc1cccc(OCC(=O)Nc2ccc(N3CCN(C(=O)c4ccccc4)CC3)cc2)c1,,inactive: -1.19%
